# In PubChem BioAssay AID504834 (National Center for Advancing Translational Sciences (NCATS), 2011):
# About 22,000 (6.9%) of roughly 320,000 compounds were called active. This list was built around the results that the source calls inconclusive (neither active nor inactive); the mix of calls is not that of the screen. Calls follow the shape of the dose curve; as a rule, active = well fitted inhibition curve with a large enough effect; inconclusive = small, poorly fitted or top-dose-only effect, or another doubt; inactive = no such curve, though single readings can be large or run the other way. Potencies of inconclusive entries are doubtful fits and often do not repeat.
# Assay: Primary qHTS for delayed death inhibitors of the malarial parasite plastid, 96 hour incubation
# Conditions: P. falciparum luciferase reporter growth; series mostly up to 28.7 µM
# Procedure, shortened: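 Parasite growth measured via integrated firefly luciferase reporter in P. falciparum. Infected erythrocytes at 2% hematocrit, 0.05% parasitemia final were treated 96 hours at 37 C under 5% CO2, and luminescence was read.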
# % is scaled to controls: 0 for no effect and ±100 for the full control effect; potency is read from the fitted curve at half-maximal effect.
SMILES,Potency,"activity change, negative = inhibition"
O=C(c1cccc(S(=O)(=O)Nc2cccc(C(F)(F)F)c2)c1)N1CCOCC1,inactive,–
CN(CCO)S(=O)(=O)c1ccc2c(c1)C(=O)c1cc(S(=O)(=O)N(C)CCO)ccc1-2,"inconclusive: 9.28 µM [inhibitor, partial curve]",–
COc1ccc(S(=O)(=O)N2CCN(C(=O)c3ccc4ccccc4n3)CC2)cc1,"inconclusive: 13.1 µM [inhibitor, single point]",–
O=C(NCCO)/C(=C\c1ccc2c(c1)OCO2)NC(=O)c1ccc(Br)cc1,"inconclusive: 1.85 µM [inhibitor, partial curve, poor fit]",–
O=C(CN1CCC(n2nnc3ccccc32)CC1)Nc1ccc2c(c1)CCC2,"inconclusive: 8.28 µM [inhibitor, partial curve]",–
CC(/C=N/NC(=O)c1c(Br)cnn1C)=C\c1ccccc1,inactive,–
Cc1nnc(SCC(=O)N2CCN(c3ccccc3)CC2)n1C1CC1,"inconclusive: 18.5 µM [inhibitor, single point]",–
COCCNc1nc(N)c([N+](=O)[O-])c(NC2CCCCC2)n1,"inconclusive: 4.15 µM [inhibitor, partial curve, poor fit]",–
CCCCn1nc(C(=O)N(CC)CC(=O)Nc2c(F)cccc2F)c2ccccc2c1=O,"inconclusive: 18.5 µM [inhibitor, single point]",–
CC(=O)CN1Cc2ccccc2/C1=N\C(=O)Nc1ccccc1,"inconclusive: 9.28 µM [inhibitor, partial curve]",–
CCCn1c(SCC(=O)c2c[nH]c3ccccc23)nnc1-c1ccncc1,"inconclusive: 1.65 µM [inhibitor, full curve, poor fit]",–
CCOc1ccc(CNC(=O)Cn2ccc3cc(S(=O)(=O)N4CCCC4)ccc32)cc1,"inconclusive: 8.28 µM [inhibitor, partial curve]",–
CCOC(=O)c1c(C)nc2c(c(SC)nn2-c2ccccc2)c1N,"inconclusive: 0.0052 µM [inhibitor, full curve, poor fit]",–
Cc1cc(N2CCN(c3ccccc3F)CC2)nc2cc(O)ccc12,inactive,–
CCCCc1nc2cc(C(=O)NCc3cn(C)nc3C)ccc2o1,"inconclusive: 18.5 µM [inhibitor, single point]",–
Cc1ccc(/C=C(\C#N)c2nc3ccccc3[nH]2)s1,active: 1.65 µM,–
O=C(CSc1cccc2cccc(Cl)c12)NC1=NCCS1,inactive,–
CN(Cc1ccccc1)C(=O)c1ccc(NC(=O)C2=CSCCO2)cc1,"inconclusive: 18.5 µM [inhibitor, single point]",–
O=C(CCc1nnc2n(Cc3ccc(F)cc3)c(=O)c3ccccc3n12)N1CCN(c2ccccn2)CC1,inactive,–
COc1ccc(Cl)cc1S(=O)(=O)N1CCC(C(=O)NCc2ccco2)CC1,inactive,–
COC(=O)C1Cc2ccccc2CN1C(=O)CCl (configuration not stated),"inconclusive: 9.28 µM [inhibitor, single point]",–
CCOC(=O)c1ccc(NC(=S)N2CCCC2c2ccc(OC)c(OC)c2)cc1 (configuration not stated),"inconclusive: 13.1 µM [inhibitor, single point]",–
Cc1cccn2c(=O)c3cc(C(=O)N4CCC5(CC4)OCCO5)n(C)c3nc12,"inconclusive: 0.465 µM [inhibitor, partial curve, poor fit]",–

SMILES,Potency,"activity change, negative = inhibition"
CCn1c(CSc2nc3ccccc3s2)n[nH]c1=S,inactive,–
COC(=O)c1c(NC(=O)C(=O)NCCCN2CCOCC2)sc2c1CCCC2,"inconclusive: 18.5 µM [inhibitor, single point]",–
Cc1ccc(NC(=O)CN(C)S(=O)(=O)c2ccc3c(c2)n(C)c(=O)c(=O)n3C)cc1,active: 11.7 µM,–
CCN(CC(=O)Nc1ccc(S(=O)(=O)N2CCOCC2)cc1)Cc1ccccc1,"inconclusive: 7.38 µM [inhibitor, partial curve, poor fit]",–
CCc1ccc(-c2cc(C)no2)cc1S(=O)(=O)N1CCN(C(=O)c2ccco2)CC1,active: 9.28 µM,–
CCn1c(C)nc2cc(C(=O)N/N=C/c3ccc(OC)cc3)ccc21,"inconclusive: 1.04 µM [inhibitor, partial curve, poor fit]",–
COc1ccc(C(=O)OCC(=O)NC(=O)CCSc2ccccc2)cc1,"inconclusive: 3.29 µM [inhibitor, partial curve, poor fit]",–
CCCOC(=O)C(C)n1c(-c2ccccc2)nc2ccccc2c1=O (configuration not stated),"inconclusive: 8.28 µM [inhibitor, partial curve]",–
O=C(Cc1ccc(Cl)cc1)Nc1ccccc1N1CCN(C(=O)c2ccccc2)CC1,"inconclusive: 18.5 µM [inhibitor, single point]",–
Cc1ccc(C(=O)n2cc(CCN3CCS(=O)(=O)CC3)c3ccccc32)cc1,"inconclusive: 0.0033 µM [inhibitor, full curve, poor fit]",–
Cc1ccc(N2CCN(C(=O)c3ccccc3)CC2)c(C)c1,"inconclusive: 18.5 µM [inhibitor, single point]",–
CC(Cc1cccs1)NC(=S)Nc1ccc(Cl)c(Cl)c1 (configuration not stated),"inconclusive: 6.57 µM [inhibitor, partial curve]",–
CCc1c(C)[nH]c(=S)c(C#N)c1C,active: 3.29 µM,–
Cc1c(C(=O)Nc2ccccc2F)sc2ncn(CC(=O)N3CCOCC3)c(=O)c12,"inconclusive: 5.22 µM [inhibitor, partial curve, poor fit]",–
CC1(C)COC2(OC1)C(=O)Nc1ccccc12,"inconclusive: 11.7 µM [inhibitor, single point]",–
COc1ccc(S(=O)(=O)CCC(=O)N2CCN(c3ccc(C(C)=O)cc3)CC2)cc1,active: 8.28 µM,–
Cc1onc(-c2ccccc2Cl)c1C(=O)N1CCN(c2nc3ccccc3s2)CC1,"inconclusive: 0.0828 µM [inhibitor, full curve, poor fit]",–
COc1cccc(N=CC2=C(O)CCCC2=O)c1,inactive,–
O=C(Nc1ccnn1C1CCN(Cc2ccc(CO)o2)CC1)c1ccccc1,"inconclusive: 13.1 µM [inhibitor, single point]",–
Clc1ccc(Sc2ccccn2)cc1,inactive,–
O=C(c1ccccc1[N+](=O)[O-])N(CCc1ccccc1)Cc1ccccc1,"inconclusive: 18.5 µM [inhibitor, partial curve, poor fit]",–
COc1ccc(C(CCN2CCCCC2)c2c(OC)cc(OC)c3c(-c4ccccc4)cc(=O)oc23)cc1 (configuration not stated),active: 9.28 µM,–
COc1cc(C=O)ccc1OCC(=O)Nc1ccc2c(c1)OCO2,"inconclusive: 18.5 µM [inhibitor, single point]",–

# Some of the entries above in another layout:
SMILES | Potency | activity change, negative = inhibition
Cc1onc(-c2ccccc2Cl)c1C(=O)N1CCN(c2nc3ccccc3s2)CC1 | inconclusive: 0.0828 µM [inhibitor, full curve, poor fit] | –
COc1cccc(N=CC2=C(O)CCCC2=O)c1 | inactive | –
O=C(Nc1ccnn1C1CCN(Cc2ccc(CO)o2)CC1)c1ccccc1 | inconclusive: 13.1 µM [inhibitor, single point] | –

# The results go on.

SMILES,Potency,"activity change, negative = inhibition"
CCN1C(=O)[C@H]2[C@@H](c3ccc(-c4ccc(OC)cc4)cc3)N[C@@](Cc3ccccc3)(C(=O)OC)[C@H]2C1=O,"inconclusive: 1.85 µM [inhibitor, full curve]",–
COc1ccc(NC(=S)NC(C)c2ccncc2)cc1OC (configuration not stated),–,inactive: -31.4% [at 5.75 µM]
Cc1cccc(NC(=S)NCCc2ccc(Cl)cc2)c1C,inactive,–
O=C(Nc1cccc(S(=O)(=O)NC2=NCCCCC2)c1)c1cc(-c2ccc(Cl)cc2)nc2ccccc12,"inconclusive: 18.5 µM [inhibitor, single point]",–
CCc1nc2c(c(=O)c3ccccc3n2C)c(=O)n1-c1ccc(F)cc1,"inconclusive: 18.5 µM [inhibitor, single point]",–
Cc1ccc(-c2nn(-c3ccccc3)cc2/C=C/C(=O)Nc2nccs2)cc1,"inconclusive: 18.5 µM [inhibitor, single point]",–
COc1ccc(S(=O)(=O)NCc2ccc(C(=O)NCc3cccnc3)cc2)cc1,"inconclusive: 2.33 µM [inhibitor, partial curve, poor fit]",–
Cc1ccc2[nH]c(=O)c3cc(C(=O)N(C)c4ccc(C)c(C)c4)sc3c2c1,active: 8.28 µM,–
CCOc1ncccc1C(=O)OCC(=O)N1c2ccccc2CC1C (configuration not stated),"inconclusive: 18.5 µM [inhibitor, partial curve, poor fit]",–
O=C(CN1C(=O)c2cccc3cccc1c23)N1CCN(c2cccc(Cl)c2)CC1,"inconclusive: 7.38 µM [inhibitor, partial curve, poor fit]",–
CC(=O)c1cccc(NCC(=O)Nc2cccc(S(=O)(=O)N3CCCCC3)c2)c1,"inconclusive: 14.7 µM [inhibitor, single point]",–
Cc1c(O)nc(SCC(=O)Nc2cccc(C(F)(F)F)c2)n(-c2ccccc2)c1=O,"inconclusive: 18.5 µM [inhibitor, single point]",–
CCc1ccc(CN(C)C(=O)c2cc(COc3cccc4cnccc34)on2)cc1,inactive,–
CCOC(=O)C1CCCN(c2c(NCCN3CCCCC3C)c(=O)c2=O)C1 (configuration not stated),active: 4.65 µM,–
CC1CCN(c2nc(-c3ccncc3)nc3ccccc23)CC1,active: 4.65 µM,–
O=C(/C=C/c1ccc(F)cc1)NCCc1ccc2c(c1)OCCO2,inactive,–
O=S(=O)(NCC(c1cccnc1)N1CCN(c2ccccc2F)CC1)c1cccs1 (configuration not stated),"inconclusive: 9.28 µM [inhibitor, single point]",–
CCN(CC(=O)Nc1ccc(NC(C)=O)cc1)C(=O)c1oc2c(ccc3ccccc32)c1C,active: 11.7 µM,–
COC(=O)C1=C(c2ccc(F)cc2F)C[C@@H]2CC[C@H]1N2C(=O)NCc1ccco1,inactive,–
CCOc1ccc(-n2c(SCC(=O)Nc3ccc(OC)cc3OC)nc3c(c2=O)SCC3)cc1,inactive,–
Cc1ccc(S(=O)(=O)CC(=O)Nc2cccc(C)n2)cc1,"inconclusive: 0.738 µM [inhibitor, full curve, poor fit]",–

# Whole records as entered above. Order of values: Potency	activity change, negative = inhibition
# CCc1ccc(CN(C)C(=O)c2cc(COc3cccc4cnccc34)on2)cc1 is listed with inactive	–
# Cc1ccc(S(=O)(=O)CC(=O)Nc2cccc(C)n2)cc1 is listed with inconclusive: 0.738 µM [inhibitor, full curve, poor fit]	–
